The shares of active, inactive and inconclusive entries below differ from those in the screen. Potencies of inconclusive entries are doubtful fits and often do not repeat. Calls of active or inactive are those of the source. Rule for the calls: active = hit-call score of the fitted dose curve at least 0.9, where 1 is the maximum; inconclusive = response in the unintended direction; inactive = score below 0.9.
assay: ACEA_ER_AUC_viability: ACEA Biosciences xCELLigence Real-Time Cell Analysis on Estrogen Receptor Agonism for Viability (AID 2283782);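 note: hit means loss of impedance signal meaning reduced cell growth or viability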
Summary of the method: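 Viability endpoint: reduced impedance area under the curve relative to DMSO, recorded by real-time electrode sensing over ~80 h of continuous exposure. Duplicate plates of T47D in hormone-depleted medium; eight concentrations, 1:4 dilutions, 100 uM maximum.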

| Compound | AC50 | outcome |
| --- | --- | --- |
| Oc1ccc(/C=C/c2cc(O)cc(O)c2)cc1 | active: 20.6 µM |  |
| CCCCC/C=C\C/C=C\CCCCCCCC(=O)OC | active: 65.3 µM |  |
| C=CCOCC(O)CO (centres undefined) |  | inactive |
| CCCCCC1C(=O)CCC1CC(=O)OC (centres undefined) | inconclusive: 81.7 µM |  |
| C=C[C@@]1(C)CC(=O)[C@]2(O)[C@@]3(C)[C@@H](O)CCC(C)(C)[C@@H]3[C@H](O)[C@H](OC(C)=O)[C@@]2(C)O1 | inconclusive: 1.35 µM |  |
| O=[N+]([O-])C(CO)(CO)CO | inconclusive: 16.5 µM |  |
| CCCCCCCCCCCCCC[P+](CCCC)(CCCC)CCCC | active: 1.73 µM |  |
| CCCC(=O)OCC |  | inactive |
| OCCCCC(F)(F)C(F)(F)C(F)(F)C(F)(F)F | inconclusive: 0.00686 µM |  |
| OCC(CO)(CO)CO | inconclusive: 0.00298 µM |  |
| O=c1[nH]cc(F)c(=O)[nH]1 | inconclusive: 0.0309 µM |  |
| COc1ccc(-c2coc3cc(O)cc(O)c3c2=O)cc1 | inconclusive: 0.539 µM |  |
| CCC(Cc1c(I)cc(I)c(N)c1I)C(=O)O (centres undefined) | inconclusive: 15.7 µM |  |
| CC1COc2ccccc2N1C(=O)C(Cl)Cl (centres undefined) | active: 4.69 µM |  |
| NC(=O)c1ccccc1Cl | active: 27.1 µM |  |
| CCCCCC(C)OC(=O)COc1ccc(Cl)c2cccnc12 (centres undefined) |  | inactive |
| OCCCC(F)(F)C(F)(F)C(F)(F)C(F)(F)C(F)(F)C(F)(F)C(F)(F)C(F)(F)F | inconclusive: 20.5 µM |  |
| CC(C)(C)c1cc(C(C)(C)C)c(O)c(C(C)(C)C)c1 | inconclusive: 10.8 µM |  |
| CS(=O)(=O)OCCCCOS(C)(=O)=O |  | inactive |

Complete entries, quoted from the list.
CS(=O)(=O)OCCCCOS(C)(=O)=O in the list: outcome: inactive
CCCCCC1C(=O)CCC1CC(=O)OC (centres undefined) in the list: AC50: inconclusive: 81.7 µM

Reference: PubChem BioAssay (EPA / NIEHS)
